Results deposited as PubChem BioAssay AID1159584 (Peter MacCallum Cancer Centre, 2016).

Test: 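Genes whose loss is lethal only together with E-cadherin loss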 (primary screen)
System: human MCF10A breast epithelial cells, parental and CDH1-null
Reagent: siRNA against human genes
Measurement: 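Cell viability by CellTiter-Glo ATP luminescence, each line scaled to the mean of mock wells across plates, then CDH1-null over parental ratio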
Scale: CDH1-null / parental viability ratio: higher = CDH1-null cells survive relatively better than parental; CDH1-null viability vs mock: higher = more viable CDH1-null cells
Shown is one part, drawn at random, of about 18,000 reagents. Not all columns of the deposit are shown. Not given: the amount of reagent, the time to read-out.

ACTRT1 [SID152154462] scored CDH1-null / parental viability ratio 1.02; CDH1-null viability vs mock (fraction of mock) = 0.5.
Against SMCR8 [SID152147980] the deposit lists CDH1-null / parental viability ratio 0.73; CDH1-null viability vs mock (fraction of mock) = 0.63.
With knock-down of LILRB2 [SID135623897] the results were CDH1-null / parental viability ratio 1.24; CDH1-null viability vs mock (fraction of mock) = 1.26.
With knock-down of SPINT1 [SID152149421] the results were CDH1-null / parental viability ratio 0.82; CDH1-null viability vs mock (fraction of mock) = 0.56.
With knock-down of CST7 [SID134321185] the results were CDH1-null / parental viability ratio 0.82; CDH1-null viability vs mock (fraction of mock) = 0.5.
Silencing of LCN8 [SID135625168] gave: CDH1-null / parental viability ratio 0.89; CDH1-null viability vs mock (fraction of mock) = 0.64.
For ANKRD24 [SID135624422], the entry reads CDH1-null / parental viability ratio 1.07; CDH1-null viability vs mock (fraction of mock) = 0.94.
MEPCE [SID134320619] scored CDH1-null / parental viability ratio 0.92; CDH1-null viability vs mock (fraction of mock) = 0.46.

Sorted by “CDH1-null viability vs mock (fraction of mock)” (high to low): some entries from above.
LILRB2 [SID135623897] — CDH1-null / parental viability ratio = 1.24; CDH1-null viability vs mock (fraction of mock) = 1.26
SMCR8 [SID152147980] — CDH1-null / parental viability ratio = 0.73; CDH1-null viability vs mock (fraction of mock) = 0.63

Continued.
Depletion of THY1 [SID134319382] came out at: CDH1-null / parental viability ratio 0.92; CDH1-null viability vs mock (fraction of mock) = 0.82.
MGA [SID135624287] gave CDH1-null / parental viability ratio 0.84; CDH1-null viability vs mock (fraction of mock) = 0.42.
PFDN5 [SID152155280] scored CDH1-null / parental viability ratio 0.83; CDH1-null viability vs mock (fraction of mock) = 0.76.
EMC7 [SID152152128] gave CDH1-null / parental viability ratio 0.76; CDH1-null viability vs mock (fraction of mock) = 0.64.
Knock-down of KRT7 [SID152154818] gave: CDH1-null / parental viability ratio 0.95; CDH1-null viability vs mock (fraction of mock) = 0.75.
With knock-down of OR6Y1 [SID152147220] the results were CDH1-null / parental viability ratio 1.46; CDH1-null viability vs mock (fraction of mock) = 0.6.
